Values from PubChem BioAssay AID1159584 (Peter MacCallum Cancer Centre, 2016).
Shown is a random part of about 18,000 reagents tested. Not all columns of the deposit are shown. Not given: the amount of reagent, the time to read-out.

Aim: 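Knock-downs that harm CDH1-null cells more than parental MCF10A cells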 (primary screen)
Cell system: human MCF10A breast epithelial cells, parental and CDH1-null
Knock-down reagent: siRNA against human genes
Measurement: 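ATP luminescence (CellTiter-Glo) viability per line relative to mean mock wells over all plates, and the ratio of CDH1-null to parental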
Reading the numbers: CDH1-null / parental viability ratio: higher = CDH1-null cells survive relatively better than parental

CDK2AP1 (cyclin dependent kinase 2 associated protein 1) gave CDH1-null / parental viability ratio 1.31. TEX101 (testis expressed 101) scored CDH1-null / parental viability ratio 0.84. After knock-down of MT1E (metallothionein 1E) the results were CDH1-null / parental viability ratio 0.74. GJA8 (gap junction protein alpha 8) showed CDH1-null / parental viability ratio 0.88. Against CROCC (ciliary rootlet coiled-coil, rootletin), the entry reads CDH1-null / parental viability ratio 1.12. Depletion of PGS1 (phosphatidylglycerophosphate synthase 1) came out at: CDH1-null / parental viability ratio 1.02.

Against PCDHA5 (protocadherin alpha 5), the values are CDH1-null / parental viability ratio 1.04. RPS6KB2 (ribosomal protein S6 kinase B2) gave CDH1-null / parental viability ratio 1.07. IQCB1 (IQ motif containing B1) gave CDH1-null / parental viability ratio 1.76. SDCBP2 (syndecan binding protein 2) scored CDH1-null / parental viability ratio 1.38. After knock-down of SLC12A7 the results were CDH1-null / parental viability ratio 1.08. GPALPP1 (GPALPP motifs containing 1) scored CDH1-null / parental viability ratio 0.87.

With knock-down of NTPCR (nucleoside-triphosphatase, cancer-related), the record shows CDH1-null / parental viability ratio 1.04. After knock-down of ENPP6 (ectonucleotide pyrophosphatase/phosphodiesterase 6) the results were CDH1-null / parental viability ratio 0.66. Depletion of KLF13 (KLF transcription factor 13) came out at: CDH1-null / parental viability ratio 0.92. For TMEM156 (transmembrane protein 156), the values are CDH1-null / parental viability ratio 1.24. For F9 (coagulation factor IX) the deposit lists CDH1-null / parental viability ratio 1.07. Silencing of RSPH6A (radial spoke head 6 homolog A) came out at: CDH1-null / parental viability ratio 1.1.

Against ASB17 (ankyrin repeat and SOCS box containing 17), the entry reads CDH1-null / parental viability ratio 0.99. C8orf82 (chromosome 8 open reading frame 82) scored CDH1-null / parental viability ratio 1.04. For GPRIN3 (GPRIN family member 3), the entry reads CDH1-null / parental viability ratio 1.11. Silencing of AHCYL1 (adenosylhomocysteinase like 1) gave: CDH1-null / parental viability ratio 0.99. Silencing of NUP93 (nucleoporin 93) gave: CDH1-null / parental viability ratio 3.4. After knock-down of HSF5 (heat shock transcription factor 5) the results were CDH1-null / parental viability ratio 1.

Depletion of CIMAP1A (ciliary microtubule associated protein 1A) came out at: CDH1-null / parental viability ratio 0.74. After knock-down of OR5H2 (olfactory receptor family 5 subfamily H member 2), the record shows CDH1-null / parental viability ratio 1.07. FAM76B (family with sequence similarity 76 member B) gave CDH1-null / parental viability ratio 0.94. PGLYRP3 (peptidoglycan recognition protein 3) showed CDH1-null / parental viability ratio 1.03. For FAM163A (family with sequence similarity 163 member A), the entry reads CDH1-null / parental viability ratio 0.98. Against TCN2 (transcobalamin 2) the deposit lists CDH1-null / parental viability ratio 1.01.

With knock-down of PEX10 (peroxisomal biogenesis factor 10) the results were CDH1-null / parental viability ratio 0.89. After knock-down of CASP6 (caspase 6) the results were CDH1-null / parental viability ratio 1.12. After knock-down of GLB1L3 (galactosidase beta 1 like 3) the results were CDH1-null / parental viability ratio 1.01. SIAE (sialic acid acetylesterase) gave CDH1-null / parental viability ratio 1. For N4BP2L2 (NEDD4 binding protein 2 like 2), the values are CDH1-null / parental viability ratio 1.4.
